Results as given in paper PMC4546468.
These are yes or no findings as the source states them, for the method shown. Binding seen in cells or lysates may run through a third protein.

Amino acid sequences for entries named in this document (tags omitted). A change or cut given only in a name is not applied to a line headed by its entry. Residues count along the entry.
UniProt P18084: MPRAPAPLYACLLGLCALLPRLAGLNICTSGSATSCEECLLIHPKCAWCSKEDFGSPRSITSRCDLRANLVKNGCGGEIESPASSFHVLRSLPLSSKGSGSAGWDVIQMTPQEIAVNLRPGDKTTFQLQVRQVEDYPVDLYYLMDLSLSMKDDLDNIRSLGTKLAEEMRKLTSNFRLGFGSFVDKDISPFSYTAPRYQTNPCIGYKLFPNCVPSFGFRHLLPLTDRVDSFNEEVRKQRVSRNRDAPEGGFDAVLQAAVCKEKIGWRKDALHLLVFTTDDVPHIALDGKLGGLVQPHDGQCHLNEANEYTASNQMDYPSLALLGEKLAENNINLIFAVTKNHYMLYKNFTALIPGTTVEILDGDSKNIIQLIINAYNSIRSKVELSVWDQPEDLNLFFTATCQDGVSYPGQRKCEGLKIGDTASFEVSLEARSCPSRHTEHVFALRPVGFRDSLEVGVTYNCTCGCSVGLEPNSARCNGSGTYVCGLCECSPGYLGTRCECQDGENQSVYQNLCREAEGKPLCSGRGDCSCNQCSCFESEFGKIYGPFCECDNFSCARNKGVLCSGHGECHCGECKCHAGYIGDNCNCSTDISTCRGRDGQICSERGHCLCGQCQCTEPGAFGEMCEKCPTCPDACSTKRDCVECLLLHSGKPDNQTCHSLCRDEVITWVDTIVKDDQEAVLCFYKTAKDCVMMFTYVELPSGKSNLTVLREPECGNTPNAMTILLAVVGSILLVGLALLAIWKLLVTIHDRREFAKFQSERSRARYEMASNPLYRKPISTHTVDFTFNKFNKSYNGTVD
UniProt P11362, residues 22-822: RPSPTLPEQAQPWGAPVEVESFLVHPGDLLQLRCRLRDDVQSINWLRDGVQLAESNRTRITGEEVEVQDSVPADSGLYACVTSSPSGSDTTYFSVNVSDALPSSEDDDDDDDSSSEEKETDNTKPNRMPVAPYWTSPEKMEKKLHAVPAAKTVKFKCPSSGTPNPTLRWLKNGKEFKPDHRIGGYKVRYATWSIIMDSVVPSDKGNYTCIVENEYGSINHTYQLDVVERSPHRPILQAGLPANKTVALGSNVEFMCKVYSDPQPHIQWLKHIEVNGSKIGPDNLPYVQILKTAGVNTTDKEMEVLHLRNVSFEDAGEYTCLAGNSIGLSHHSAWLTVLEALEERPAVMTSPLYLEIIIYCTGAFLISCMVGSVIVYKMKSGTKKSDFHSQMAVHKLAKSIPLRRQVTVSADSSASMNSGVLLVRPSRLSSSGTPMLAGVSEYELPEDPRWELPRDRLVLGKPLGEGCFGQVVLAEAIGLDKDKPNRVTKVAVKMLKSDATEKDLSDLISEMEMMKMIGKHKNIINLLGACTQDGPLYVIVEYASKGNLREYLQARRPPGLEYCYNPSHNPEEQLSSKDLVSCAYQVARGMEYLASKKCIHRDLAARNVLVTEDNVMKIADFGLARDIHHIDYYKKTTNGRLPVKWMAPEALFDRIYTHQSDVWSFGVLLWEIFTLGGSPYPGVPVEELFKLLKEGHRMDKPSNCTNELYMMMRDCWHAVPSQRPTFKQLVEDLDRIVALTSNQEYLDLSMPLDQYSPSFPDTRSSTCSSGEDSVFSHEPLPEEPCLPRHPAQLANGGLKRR

Target: β5 integrin (human (endogenous; the cells of this experiment are not named, all cells of the paper are human)) (UniProt P18084)
Assay: co-IP; endogenous proteins; cells lysed in RIPA non-denaturant lysis buffer, supernatant with primary antibody (1/50) 12 hours at 4°C, protein A magnetic beads, Western blotting; also after surface cross-linking of cells with 2 mM DSP for 30 minutes at room temperature; tested upon FGF-2 presentation

Question: With “FGFR1 (from UniProt P11362 22-822) (receptor)” as the substance, how does the binding read?
Answer: no binding
